# Data: PubChem BioAssay AID504444 (National Center for Advancing Translational Sciences (NCATS), 2011)
# The whole screen tested about 360,000 compounds, of which about 7,500 (2.1%) were called active. Inconclusive means that the source gave no clear call. Such entries were picked first, then a sample of the others. Calls follow the shape of the dose curve; as a rule, active = well fitted inhibition curve with a large enough effect; inconclusive = small, poorly fitted or top-dose-only effect, or effect the other way; inactive = flat fitted curve, though single readings scatter. A potency beside an inconclusive call is a rough fit, not a confirmed value.
# Assay: Nrf2 qHTS screen for inhibitors; also: nearly all actives have a fitted effect of over 60% in size
# Details: A549 ARE-Fluc reporter, luciferase luminescence, 18-24 h; activity change, negative = inhibition: at 46 µM (top of the series)
# In short: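 Two sequential reads on A549 ARE_Fluc cells exposed to compound for 18-24 h: a CellTiter-Fluor fluorescence read for viability, then a luciferase luminescence read for Nrf2/ARE activity.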
# % is scaled to controls: 0 for no effect and ±100 for the full control effect; potency is read from the fitted curve at half-maximal effect.
Compound,Potency,"activity change, negative = inhibition"
COc1ccc(C(=O)OC2CC3CCC(C2)[N+]3(C)[O-])cc1OC (stereo not given),inactive,–
C#CC1(O)CCC2C3CCC4=C/C(=N/OCC(=O)NCC(=O)NC(C(=O)O)C(C)C)CC[C@]4(C)C3CC[C@@]21C (stereo not given in full),active: 2.06 µM,–
CSc1ccccc1C(=O)C1CCCN(Cc2cccc(C)n2)C1 (stereo not given),"inconclusive: 4.61 µM [activator, full curve, poor fit]",–
N/C(=N\N=C\c1ccc(O)cc1O)N[N+](=O)[O-],–,inconclusive: 53.8% [activator]
Fc1ccc(CCNCc2ccc(Cl)c(Cl)c2)cc1,active: 11.6 µM,–
Cc1ccc(-c2nn3c(C)nnc3c3ccccc23)cc1S(=O)(=O)NCCO,"inconclusive: 29.1 µM [falling, partial curve, poor fit]",–
CC(C)(C)n1cc(C(=O)c2ccc3ccccc3c2O)cn1,"inconclusive: 16.4 µM [activator, partial curve]",–
CCN(CC)c1ccc(N=Cc2c(O)n(-c3ccccc3)c(=O)[nH]c2=O)cc1,"inconclusive: 32.6 µM [falling, single point]",–
CC[n+]1c(/C=C/C=C/c2ccc(N(C)C)cc2)sc2ccccc21,"inconclusive: 29.1 µM [falling, single point]",–
Cc1ccc(OCC(=O)Nc2ccc(Cl)cc2C(=O)c2ccccc2)cc1C,inactive,–
Cn1c(O)c(/C=C2\N=c3ccccc3=C2CCNC(=S)NC2CC2)c(=O)n(C)c1=O,"inconclusive: 29.1 µM [activator, single point]",–
Clc1ccc(-c2nc3ccc(Cl)cn3c2CN2CCOCC2)cc1,"inconclusive: 32.6 µM [falling, single point]",–
COC(=O)C1=C(c2cccc(Cl)c2)C[C@@H]2CC[C@H]1N2C(=O)N1CCCC1,"inconclusive: 0.058 µM [falling, partial curve, poor fit]",–
O=C(c1ccc(Cl)cc1)C1CCCN(Cc2cccc3ncccc23)C1 (stereo not given),"inconclusive: 25.9 µM [falling, partial curve]",–
O=C(CNC(=O)c1ccc(Cl)cc1)Nc1ccc(Br)cc1C(=O)c1ccccc1,"inconclusive: 16.4 µM [falling, single point]",–
O=C(Nc1ccc(C(F)(F)F)cc1)c1cccn(Cc2ccc3c(c2)OC(F)(F)O3)c1=O,"inconclusive: 2.06 µM [falling, full curve]",–
c1ccc(C[n+]2ccccc2)cc1,"inconclusive: 16.4 µM [falling, single point]",–
Cc1cc(NC(=O)COC(=O)c2c(C)nn(Cc3ccccc3)c2C)no1,inactive,–
O=C1CCN(C(=O)CCCn2c(=O)oc3ccccc32)CC1,"inconclusive: 0.058 µM [falling, full curve]",–
C=CCn1c(O)c(C(C)=NCCC2=CCCCC2)c(=O)[nH]c1=O,"inconclusive: 10.3 µM [falling, partial curve, poor fit]",–
COc1ccccc1OCCCn1cc(C(C)=O)c2ccccc21,"inconclusive: 20.6 µM [falling, single point]",–
CCOC(=O)c1c(-c2ccccc2)oc2ccc(OC(=O)N(C)C)cc12,"inconclusive: 16.4 µM [falling, partial curve, poor fit]",–
Cn1cc([N+](=O)[O-])c(C(=O)Nc2ccc3c(C(F)(F)F)cc(=O)oc3c2)n1,inactive,–
CCn1cc2nc(SCc3c(F)cccc3Cl)n(CCc3ccccc3)c(=O)c2n1,"inconclusive: 23.1 µM [falling, single point]",–

Compound,Potency,"activity change, negative = inhibition"
Cc1cc(/C=C2\C(=O)NC(=O)N(c3ccc(Br)cc3)C2=O)c(C)n1C,"inconclusive: 10.3 µM [activator, partial curve]",–
Cc1cccc(NC(=O)OC2CN3CCC2CC3)c1 (stereo not given),"inconclusive: 3.26 µM [activator, partial curve, poor fit]",–
CCS(=O)(=O)NCc1nnc2n1-c1ccc(Br)cc1C(c1ccccc1Cl)=NC2,inactive,–
CC1CC(C)CN(C(=O)COC(=O)c2cn(C)c3ccccc23)C1 (stereo not given),inactive,–
COc1cc2[nH]c(=S)n(-c3ccccc3)c(=O)c2cc1OC,"inconclusive: 16.4 µM [falling, single point]",–
O=c1c2ccccc2nc(CNCc2ccco2)n1-c1ccc(F)cc1,inactive,–
O=P(Oc1ccccc1)(Oc1ccccc1)C(Nc1ccccc1)c1ccccc1 (stereo not given),active: 20.6 µM,–
CC1CC(C)CC(C)C(O)C(C#N)=CC=CCC(C2CCCC2C(=O)O)OC(=O)CC(O)C(C)C1 (stereo not given),active: 0.517 µM,–
Clc1ccc2c(c1)C(c1ccccc1Cl)=NCc1nnc(Br)n1-2,"inconclusive: 11.6 µM [falling, partial curve, poor fit]",–
Cc1ccc(-c2cc(-c3ccc(C)cc3)[n+](-c3ccccc3)c(-c3ccc(C)cc3)c2)cc1,active: 2.59 µM,–
CN(C)/C=c1\sc2c(C#N)cc(C(=O)c3ccc(Br)cc3)n2c1=O,"inconclusive: 14.6 µM [activator, partial curve]",–
O=c1c2ccccc2nc(-c2ccco2)n1-c1ccc(Br)cc1,inactive,–
c1ccc2c(CN3CCN(C4CCCCC4)CC3)c[nH]c2c1,inactive,–
Oc1cc(Cl)ccc1Oc1ccc(Cl)cc1Cl,inactive,–
CCCCCCC(=O)N/N=C/c1c(O)n(CCCC)c(=S)[nH]c1=O,active: 20.6 µM,–
CCOc1cc(/C=C2/C(=O)NC(=O)N(c3ccc(CC)cc3)C2=O)ccc1OC(=O)c1cccs1,inactive,–
COc1cc(/C=C2\C(=O)NC(=O)N(c3ccccc3)C2=O)cc(OC)c1O,inactive,–
CCOc1ccc(NCc2cccn2-c2nnc(N3CCC(C(=O)NC(C)c4ccccc4)CC3)s2)cc1 (stereo not given),"inconclusive: 23.1 µM [falling, single point]",–
O=C1NC(=S)NC(=O)C1=Cc1ccc(OCc2ccccc2)cc1,"inconclusive: 29.1 µM [activator, single point]",–
Cc1cccc(N2C(=O)NC(=O)/C(=C\c3cnc(-c4ccccc4)nc3)C2=O)c1,inactive,–
CC(C)(C)c1ccc(C(=O)Nc2ccc3nc(SCC(=O)N4CCCC4)sc3c2)cc1,active: 14.6 µM,–
NC1=C(Br)C(=O)c2ccccc2C1=O,"inconclusive: 20.6 µM [falling, single point]",–
Cc1cc(=O)[nH]c(CCl)n1,"inconclusive: 16.4 µM [activator, partial curve]",–
N#Cc1cn(Cc2ccccc2)c(=O)[nH]c1=O,"inconclusive: 7.31 µM [activator, partial curve, poor fit]",–

Compound,Potency,"activity change, negative = inhibition"
Cc1ncc([N+](=O)[O-])n1CCOc1nonc1N,inactive,–
O=C1Nc2ccccc2Sc2ccccc21,inactive,–
CN1CCN(CCC(=O)OC2CC3CCC(C2)N3C)CC1 (stereo not given),"inconclusive: 13 µM [activator, partial curve, poor fit]",–
Cc1ccc(C(=O)Nc2scc(-c3ccccc3)c2C(=O)O)cc1,"inconclusive: 3.26 µM [activator, single point]",–
Cc1ccc(OCCOc2cccc(C=C3C(=O)NC(=O)NC3=O)c2)c(C)c1,"inconclusive: 9.2 µM [activator, partial curve]",–
O=c1[nH]c(=S)n(C2CC2)c(O)c1C=NCc1cccnc1,"inconclusive: 1.16 µM [activator, partial curve, poor fit]",–
Cc1ccc(NC(=O)Cn2cc(C(=O)c3ccccc3)c3ccccc32)c(C)c1,"inconclusive: 32.6 µM [falling, single point]",–
CCCCCCn1c(N)c(C(=O)NCCN2CCOCC2)c2nc3ccccc3nc21,"inconclusive: 23.1 µM [falling, single point]",–
CCC1(O)C(=O)OCc2c1cc1n(c2=O)Cc2cc3c(N)cccc3nc2-1 (stereo not given),active: 0.82 µM,–
CCN1CC=C(c2c[nH]c3ccccc23)CC1,active: 1.3 µM,–
Cc1ccc2c(c1)C1CN(C)CCC1N2C(=S)Nc1cccnc1 (stereo not given),"inconclusive: 32.6 µM [falling, single point]",–
c1cc2c(cc1C1OCC3C(c4ccc5c(c4)OCO5)OCC13)OCO2 (stereo not given),inactive,–
CCOC(=O)[C@]12Cc3cc(OC)ccc3[C@H]1N(Cc1ccccc1)C(=O)c1cc(F)c(F)cc12,"inconclusive: 29.1 µM [falling, single point]",–
FC(F)(F)c1cccc(C2NCc3ccccc3-n3cccc32)c1 (stereo not given),"inconclusive: 18.4 µM [falling, single point]",–
O=C1OC(c2ccc(Br)cc2)=N/C1=C\N1CC2CC(C1)c1cccc(=O)n1C2 (stereo not given),"inconclusive: 20.6 µM [falling, single point]",–
Cc1cc(C(=O)CS(=O)(=O)c2ccccc2)cc(C)c1OC(=O)N(C)C,"inconclusive: 9.2 µM [activator, partial curve]",–
Cn1cc(C(=O)OCC(=O)NC2(C#N)CCCC2)c2ccccc21,inactive,–
COc1cccc(CCNCc2ccc(SC)cc2)c1,"inconclusive: 32.6 µM [activator, partial curve, poor fit]",–
O=[N+]([O-])c1ccc(C2C3C(c4ccccc4)=NC4(CCCC4)N32)cc1 (stereo not given),"inconclusive: 5.8 µM [activator, partial curve, poor fit]",–
CN(C(=O)Oc1cccc2ccccc12)C1C=CCC1 (stereo not given),"inconclusive: 13 µM [activator, partial curve, poor fit]",–
COc1ccc(N2CCN(CCCNC(=O)c3cnn(-c4ccc(F)cc4)c3-n3cccc3)CC2)cc1,"inconclusive: 14.6 µM [falling, single point]",–
CC(N)C(=O)NC1C2C(=C(O)CC(O)C2O)C(=O)OC1(C)C(Cl)Cl (stereo not given),active: 1.64 µM,–

# Four entries drawn at random from the list so far:
Compound,Potency,"activity change, negative = inhibition"
Cc1cc(/C=C2\C(=O)NC(=O)N(c3ccc(Br)cc3)C2=O)c(C)n1C,"inconclusive: 10.3 µM [activator, partial curve]",–
COc1cccc(CCNCc2ccc(SC)cc2)c1,"inconclusive: 32.6 µM [activator, partial curve, poor fit]",–
COc1ccccc1OCCCn1cc(C(C)=O)c2ccccc21,"inconclusive: 20.6 µM [falling, single point]",–
Cc1cccc(N2C(=O)NC(=O)/C(=C\c3cnc(-c4ccccc4)nc3)C2=O)c1,inactive,–

# Single records, as listed above.
# `FC(F)(F)c1cccc(C2NCc3ccccc3-n3cccc32)c1` (stereo not given) is entered as Potency: inconclusive: 18.4 µM [falling, single point]
# `CCC1(O)C(=O)OCc2c1cc1n(c2=O)Cc2cc3c(N)cccc3nc2-1` (stereo not given) is entered as Potency: active: 0.82 µM
